For the assay, the target named is YFP-tagged Glyceraldehyde-3-phosphate-dehydrogenase (GAPC) (Arabidopsis thaliana) (UniProt Q9FX54). Description: affinity purification with mass spectrometry; YFP-GAPC2 pulled down with GFP-Trap from soluble Arabidopsis leaf proteins; 150 mM NaCl, 20 mM HEPES pH 7.2, 1% NP-40, overnight at 4 °C; three replicates, no antibody control; eluted proteins analysed by LC-MS/MS.

Protein sequences, listed by entry. Tags and fused reporters are not part of them. Lines headed by an entry give the natural chain unless they say otherwise; changes in a name come on top.
UniProt Q9FX54: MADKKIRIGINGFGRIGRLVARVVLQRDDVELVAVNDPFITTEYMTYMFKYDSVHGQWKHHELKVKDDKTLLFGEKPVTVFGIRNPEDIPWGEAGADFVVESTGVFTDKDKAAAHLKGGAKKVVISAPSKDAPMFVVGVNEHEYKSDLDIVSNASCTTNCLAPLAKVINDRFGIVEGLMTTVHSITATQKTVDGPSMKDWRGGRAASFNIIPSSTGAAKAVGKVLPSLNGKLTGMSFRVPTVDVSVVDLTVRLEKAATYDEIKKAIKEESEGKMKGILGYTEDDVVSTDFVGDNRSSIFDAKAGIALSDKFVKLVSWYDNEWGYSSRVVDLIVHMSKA

No constants are given. Whether binding was seen depends on the method and setting. In cells and extracts the contact can be indirect. These calls come from enrichment with a bait or labelling near it, and not all partners need be listed.

As to ACTIN 2 (from UniProt Q96292 1-377), the binding result was “binds”. In the case of ACTIN 7 (from UniProt P53492 1-377) it was “binds”.

(Values after PMC6683005.)
